# Assay results published in patent US8566040.
# The chains behind the UniProt entries cited, without tags or fusion partners. Residues count along the entry.
# UniProt P17255, 284-737: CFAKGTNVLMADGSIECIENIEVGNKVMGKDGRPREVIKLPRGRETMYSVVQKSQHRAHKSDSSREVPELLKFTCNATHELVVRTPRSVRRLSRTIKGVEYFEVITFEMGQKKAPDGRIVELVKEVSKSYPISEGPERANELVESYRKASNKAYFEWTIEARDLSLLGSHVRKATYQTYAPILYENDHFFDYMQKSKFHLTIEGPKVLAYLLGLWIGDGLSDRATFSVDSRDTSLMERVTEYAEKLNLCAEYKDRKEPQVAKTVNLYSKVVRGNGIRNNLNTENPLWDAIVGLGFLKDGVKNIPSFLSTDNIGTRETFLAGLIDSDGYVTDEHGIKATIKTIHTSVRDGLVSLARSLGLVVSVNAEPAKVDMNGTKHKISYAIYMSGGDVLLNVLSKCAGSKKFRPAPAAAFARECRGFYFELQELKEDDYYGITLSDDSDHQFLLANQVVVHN
# Assays:
# [1] = target: PI-SceI (UniProt P17255); assay: enzyme reaction in vitro; conditions: purified recombinant protein, protein details: commercially available
# [2] = target: T1, PI-PspI (UniProt Q51334); assay: enzyme reaction in vitro; conditions: purified recombinant protein, protein details: commercially available
# T1 sequence (limits assumed): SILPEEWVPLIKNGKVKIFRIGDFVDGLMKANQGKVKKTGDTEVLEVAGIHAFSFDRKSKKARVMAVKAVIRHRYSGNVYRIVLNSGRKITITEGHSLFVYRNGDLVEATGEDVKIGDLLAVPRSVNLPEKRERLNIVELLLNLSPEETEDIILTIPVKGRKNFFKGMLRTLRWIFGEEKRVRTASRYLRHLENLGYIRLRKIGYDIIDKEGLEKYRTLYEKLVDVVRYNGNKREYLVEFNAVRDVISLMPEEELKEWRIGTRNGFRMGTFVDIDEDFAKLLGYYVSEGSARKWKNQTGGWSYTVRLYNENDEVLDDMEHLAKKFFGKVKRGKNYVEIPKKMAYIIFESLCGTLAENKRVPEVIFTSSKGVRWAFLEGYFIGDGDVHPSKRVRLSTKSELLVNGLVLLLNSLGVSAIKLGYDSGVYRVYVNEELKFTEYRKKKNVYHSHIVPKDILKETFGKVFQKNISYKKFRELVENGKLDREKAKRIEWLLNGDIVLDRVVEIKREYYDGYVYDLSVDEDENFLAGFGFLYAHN
# [3] = target cloned in pGEM-T Easy, linearized vector
sequence,measurement,setting,value
ATCTATGTCGGGTGCGGAGAAAGAGGTAATGAAATGGCA (double strand) [PI-SceI wild-type target],activity on this sequence,[1]; [3],active
ATCTATGTCGGGTGCGGAGGAAGAGGTAATGAAATGGCA (double strand) [PI-SceI missense target],activity on this sequence,"[1]; cleavage eliminated entirely by single missense mutation, variant of PI-SceI wild-type target",not active
ATTTACGTTGGATGTGGGGAGAGGGGCAACGAGATAGCG (double strand) [PI-SceI 13-transition target],activity on this sequence,"[1]; cleaved as efficiently as cognate target, variant of PI-SceI wild-type target",active
TAGCGAATAGTTACTACGGATACTACGGATA (double strand) [PI-PspI synonymous target],activity on this sequence,"[2]; efficiently cleaved, variant of PI-PspI wild-type target",active
TGGCAAACAGCTATTATGGGTATTATGGGTA (double strand) [PI-PspI wild-type target],activity on this sequence,[2]; [3],active

# For some assays here: No signal at the amounts used counts as a negative. For some assays here: Where a protein sequence is shown, tags need not be part of it.
